The assay addresses T1, hEGFR-Fc (chimeric EGFR protein comprising the extracellular domain of EGFR fused to the Fc domain of IgG1) (human, UniProt P00533 25-645).
T1 construct: extracellular domain; Bought (R&D), captured on a Protein A sensor chip; also called hEGFR-Fc (R&D); extracellular domain of EGFR fused to IgG-Fc; not shown: Fc domain of IgG1
As to the kind of experiment: Flow cytometry of primary human T cells carrying the CAR, stained with EGFR extracellular domain-IgG1 Fc fusion and an anti-human-IgG1 antibody; T cells without CAR as control. (In flow cytometry, cells or beads pass a laser one at a time.)

B1: Myc-S(18.4.2)-8cys-BB-3z (other)
CAR chain: MEQKLISEEDLGGGGSAAVKLTYQGEEKQVDISKIKYVDRAGQFIWFEYDEGGGALGTGWVSEKDAPKELLQMLEKQTTTPAPRPPTPAPTIASQPLSLRPEACRPAAGGAVHTRGLDFACDIYIWAPLAGTCGVLLLSLVITLYCKRGRKKLLYIFKQPFMRPVQTTQEEDGCSCRFPEEEEGGCELRVKFSRSADAPAYKQGQNQLYNELNLGRREEYDVLDKRRGRDPEMGGKPRRKNPQEGLYNELQKDKMAEAYSEIGMKGERRRGKGHDGLYQGLSTATKDTYDALHMQALPPR
notes: Expressed in primary human T cells; The CD8 alpha hinge keeps its cysteines (8cys)
B1: the binding result is on record as “binds”.

B2: S(18.4.2)-8cys-BB-3z (other)
CAR chain: MAAVKLTYQGEEKQVDISKIKYVDRAGQFIWFEYDEGGGALGTGWVSEKDAPKELLQMLEKQTTTPAPRPPTPAPTIASQPLSLRPEACRPAAGGAVHTRGLDFACDIYIWAPLAGTCGVLLLSLVITLYCKRGRKKLLYIFKQPFMRPVQTTQEEDGCSCRFPEEEEGGCELRVKFSRSADAPAYKQGQNQLYNELNLGRREEYDVLDKRRGRDPEMGGKPRRKNPQEGLYNELQKDKMAEAYSEIGMKGERRRGKGHDGLYQGLSTATKDTYDALHMQALPPR
notes: as for B1
Regarding B2, the binding result is “binds”.

B3: S(18.4.2)-G4S-8cys-BB-3z (other)
CAR chain: MAAVKLTYQGEEKQVDISKIKYVDRAGQFIWFEYDEGGGALGTGWVSEKDAPKELLQMLEKQGGGGSGGGGSTTTPAPRPPTPAPTIASQPLSLRPEACRPAAGGAVHTRGLDFACDIYIWAPLAGTCGVLLLSLVITLYCKRGRKKLLYIFKQPFMRPVQTTQEEDGCSCRFPEEEEGGCELRVKFSRSADAPAYKQGQNQLYNELNLGRREEYDVLDKRRGRDPEMGGKPRRKNPQEGLYNELQKDKMAEAYSEIGMKGERRRGKGHDGLYQGLSTATKDTYDALHMQALPPR
notes: as for B1
On to B3, for which the binding result was “binds”.

Values taken from patent publication US20220041687A1 (ST ANNA KINDERKREBSFORSCHUNG, published 2022).
